Results: the supplement of paper PMC11006884
Most of the targets with a hit are listed elsewhere, so they are rarer here than in the full data. Single values of this set are uncertain. This is a selection; strong and weak results do not stand in their true shares.

By UniProt entry, the sequences of proteins in these tests, tags left out. Where a name states a change or a piece, a line headed by the entry shows the natural chain unless it says otherwise.
UniProt P43487, whole entry, looked up: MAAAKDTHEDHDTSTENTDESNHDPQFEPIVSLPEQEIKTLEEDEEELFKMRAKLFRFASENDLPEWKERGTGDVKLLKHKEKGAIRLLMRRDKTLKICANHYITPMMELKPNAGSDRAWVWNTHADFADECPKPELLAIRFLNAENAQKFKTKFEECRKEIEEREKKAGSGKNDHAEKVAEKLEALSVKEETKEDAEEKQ
UniProt P50502: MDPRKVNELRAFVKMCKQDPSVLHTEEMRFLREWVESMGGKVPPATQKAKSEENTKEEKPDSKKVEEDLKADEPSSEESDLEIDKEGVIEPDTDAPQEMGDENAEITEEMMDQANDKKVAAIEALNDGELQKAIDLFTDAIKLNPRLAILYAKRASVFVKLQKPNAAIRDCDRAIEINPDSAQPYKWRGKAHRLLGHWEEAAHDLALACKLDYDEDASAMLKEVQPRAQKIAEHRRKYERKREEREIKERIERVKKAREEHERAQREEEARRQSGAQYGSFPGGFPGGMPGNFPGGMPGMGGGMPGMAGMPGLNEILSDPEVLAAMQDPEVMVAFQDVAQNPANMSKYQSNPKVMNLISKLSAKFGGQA
UniProt P46013: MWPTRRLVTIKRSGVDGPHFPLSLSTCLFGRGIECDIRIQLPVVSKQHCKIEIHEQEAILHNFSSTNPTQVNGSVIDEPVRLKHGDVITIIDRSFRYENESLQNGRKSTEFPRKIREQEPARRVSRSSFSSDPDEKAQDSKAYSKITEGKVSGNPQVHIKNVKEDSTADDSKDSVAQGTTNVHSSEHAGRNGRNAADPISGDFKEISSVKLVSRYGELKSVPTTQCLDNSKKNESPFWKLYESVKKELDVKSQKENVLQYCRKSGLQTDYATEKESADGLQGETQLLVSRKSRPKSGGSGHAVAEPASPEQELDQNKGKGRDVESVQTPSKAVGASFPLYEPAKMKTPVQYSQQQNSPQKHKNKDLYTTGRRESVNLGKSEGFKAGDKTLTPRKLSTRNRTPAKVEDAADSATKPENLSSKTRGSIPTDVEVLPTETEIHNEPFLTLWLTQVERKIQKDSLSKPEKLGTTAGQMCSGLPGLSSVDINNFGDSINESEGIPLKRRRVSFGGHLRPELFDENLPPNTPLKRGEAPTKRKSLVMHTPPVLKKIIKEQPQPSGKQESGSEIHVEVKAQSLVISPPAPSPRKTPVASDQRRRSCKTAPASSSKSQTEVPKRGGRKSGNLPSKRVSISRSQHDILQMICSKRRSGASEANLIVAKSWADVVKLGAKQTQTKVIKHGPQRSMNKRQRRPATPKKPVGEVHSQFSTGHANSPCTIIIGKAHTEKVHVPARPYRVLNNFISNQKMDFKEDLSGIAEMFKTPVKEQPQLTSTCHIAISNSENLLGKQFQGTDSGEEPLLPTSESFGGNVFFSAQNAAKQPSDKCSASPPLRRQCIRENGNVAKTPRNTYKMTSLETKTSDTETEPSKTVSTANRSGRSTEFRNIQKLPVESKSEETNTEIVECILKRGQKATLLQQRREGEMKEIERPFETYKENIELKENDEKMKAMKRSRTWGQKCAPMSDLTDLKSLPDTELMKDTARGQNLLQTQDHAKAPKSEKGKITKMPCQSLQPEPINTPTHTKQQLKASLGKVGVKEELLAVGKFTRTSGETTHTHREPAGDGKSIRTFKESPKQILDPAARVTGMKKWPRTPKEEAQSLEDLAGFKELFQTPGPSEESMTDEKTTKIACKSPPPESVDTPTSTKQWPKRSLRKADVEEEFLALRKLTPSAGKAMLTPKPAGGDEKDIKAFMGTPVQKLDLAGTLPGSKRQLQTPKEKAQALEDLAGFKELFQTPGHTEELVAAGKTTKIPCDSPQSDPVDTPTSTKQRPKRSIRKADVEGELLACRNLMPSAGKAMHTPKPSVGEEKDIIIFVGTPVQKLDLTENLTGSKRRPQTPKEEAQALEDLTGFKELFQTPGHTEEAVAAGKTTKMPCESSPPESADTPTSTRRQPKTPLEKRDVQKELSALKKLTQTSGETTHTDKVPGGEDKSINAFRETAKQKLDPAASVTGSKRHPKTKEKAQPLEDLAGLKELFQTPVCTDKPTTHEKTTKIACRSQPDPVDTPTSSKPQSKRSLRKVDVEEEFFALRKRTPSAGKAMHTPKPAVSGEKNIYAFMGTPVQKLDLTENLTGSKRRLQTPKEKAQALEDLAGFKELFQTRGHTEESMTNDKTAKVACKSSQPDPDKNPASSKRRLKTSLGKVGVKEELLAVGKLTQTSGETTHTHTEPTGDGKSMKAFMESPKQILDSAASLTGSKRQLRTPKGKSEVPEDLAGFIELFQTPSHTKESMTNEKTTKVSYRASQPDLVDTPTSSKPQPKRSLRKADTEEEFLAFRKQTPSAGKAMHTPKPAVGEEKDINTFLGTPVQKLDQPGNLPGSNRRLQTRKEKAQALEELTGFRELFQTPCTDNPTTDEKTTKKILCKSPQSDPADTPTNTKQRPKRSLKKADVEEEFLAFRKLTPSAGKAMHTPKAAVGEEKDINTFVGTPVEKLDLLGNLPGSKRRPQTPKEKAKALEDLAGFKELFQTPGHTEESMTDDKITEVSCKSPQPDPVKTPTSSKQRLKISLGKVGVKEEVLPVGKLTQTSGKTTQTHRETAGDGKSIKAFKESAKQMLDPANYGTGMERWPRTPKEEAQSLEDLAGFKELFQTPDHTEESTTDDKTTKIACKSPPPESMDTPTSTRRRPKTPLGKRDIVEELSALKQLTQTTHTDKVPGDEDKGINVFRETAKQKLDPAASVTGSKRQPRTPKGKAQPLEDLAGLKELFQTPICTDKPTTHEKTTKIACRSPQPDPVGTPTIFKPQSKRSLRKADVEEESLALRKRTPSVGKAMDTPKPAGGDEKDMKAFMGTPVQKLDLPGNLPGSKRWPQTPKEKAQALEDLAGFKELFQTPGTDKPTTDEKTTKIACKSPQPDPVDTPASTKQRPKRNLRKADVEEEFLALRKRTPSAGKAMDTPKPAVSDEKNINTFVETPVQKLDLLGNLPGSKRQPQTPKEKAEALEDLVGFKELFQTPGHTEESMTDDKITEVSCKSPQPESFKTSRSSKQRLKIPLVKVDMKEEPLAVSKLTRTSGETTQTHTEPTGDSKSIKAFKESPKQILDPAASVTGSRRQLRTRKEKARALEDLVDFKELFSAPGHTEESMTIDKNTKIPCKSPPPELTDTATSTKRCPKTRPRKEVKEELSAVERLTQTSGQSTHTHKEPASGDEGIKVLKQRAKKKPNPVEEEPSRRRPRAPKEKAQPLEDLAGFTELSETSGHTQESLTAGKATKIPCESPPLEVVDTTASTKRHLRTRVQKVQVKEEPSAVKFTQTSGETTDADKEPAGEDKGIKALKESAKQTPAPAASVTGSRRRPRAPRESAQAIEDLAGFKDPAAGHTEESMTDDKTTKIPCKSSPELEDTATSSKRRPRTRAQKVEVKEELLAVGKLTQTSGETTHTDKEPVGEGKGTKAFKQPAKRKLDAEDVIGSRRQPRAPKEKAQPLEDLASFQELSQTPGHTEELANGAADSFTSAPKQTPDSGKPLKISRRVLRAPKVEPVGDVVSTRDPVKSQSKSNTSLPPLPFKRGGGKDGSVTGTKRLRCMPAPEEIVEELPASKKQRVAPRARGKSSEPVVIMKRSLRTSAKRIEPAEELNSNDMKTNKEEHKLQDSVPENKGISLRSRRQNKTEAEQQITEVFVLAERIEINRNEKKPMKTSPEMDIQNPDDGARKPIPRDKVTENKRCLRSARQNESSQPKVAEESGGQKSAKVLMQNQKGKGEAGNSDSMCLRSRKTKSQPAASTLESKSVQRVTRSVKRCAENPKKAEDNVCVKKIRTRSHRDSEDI
UniProt P43246, whole entry, looked up: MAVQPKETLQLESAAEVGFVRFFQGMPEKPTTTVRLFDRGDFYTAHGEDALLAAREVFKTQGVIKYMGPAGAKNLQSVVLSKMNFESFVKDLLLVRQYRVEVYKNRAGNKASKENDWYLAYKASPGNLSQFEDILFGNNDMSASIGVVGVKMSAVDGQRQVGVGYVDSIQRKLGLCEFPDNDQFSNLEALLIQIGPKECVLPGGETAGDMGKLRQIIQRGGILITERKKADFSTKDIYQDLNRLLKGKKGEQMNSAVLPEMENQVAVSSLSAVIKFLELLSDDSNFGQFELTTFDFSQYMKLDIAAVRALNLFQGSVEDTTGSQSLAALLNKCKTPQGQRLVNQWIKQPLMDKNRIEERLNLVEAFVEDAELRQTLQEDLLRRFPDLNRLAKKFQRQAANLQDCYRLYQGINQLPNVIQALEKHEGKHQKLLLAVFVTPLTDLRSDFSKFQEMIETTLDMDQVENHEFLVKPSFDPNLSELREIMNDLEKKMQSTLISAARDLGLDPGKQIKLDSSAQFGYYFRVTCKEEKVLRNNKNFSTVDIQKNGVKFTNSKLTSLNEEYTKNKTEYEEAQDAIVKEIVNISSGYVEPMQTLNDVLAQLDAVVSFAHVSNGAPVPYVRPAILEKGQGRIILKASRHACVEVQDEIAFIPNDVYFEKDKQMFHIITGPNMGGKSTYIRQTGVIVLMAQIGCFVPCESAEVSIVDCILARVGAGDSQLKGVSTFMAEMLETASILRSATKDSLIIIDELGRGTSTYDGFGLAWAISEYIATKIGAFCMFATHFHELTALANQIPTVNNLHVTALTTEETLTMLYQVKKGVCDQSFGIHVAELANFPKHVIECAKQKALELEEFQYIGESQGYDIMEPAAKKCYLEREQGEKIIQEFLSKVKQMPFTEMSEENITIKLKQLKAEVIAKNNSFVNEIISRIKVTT
UniProt P51003: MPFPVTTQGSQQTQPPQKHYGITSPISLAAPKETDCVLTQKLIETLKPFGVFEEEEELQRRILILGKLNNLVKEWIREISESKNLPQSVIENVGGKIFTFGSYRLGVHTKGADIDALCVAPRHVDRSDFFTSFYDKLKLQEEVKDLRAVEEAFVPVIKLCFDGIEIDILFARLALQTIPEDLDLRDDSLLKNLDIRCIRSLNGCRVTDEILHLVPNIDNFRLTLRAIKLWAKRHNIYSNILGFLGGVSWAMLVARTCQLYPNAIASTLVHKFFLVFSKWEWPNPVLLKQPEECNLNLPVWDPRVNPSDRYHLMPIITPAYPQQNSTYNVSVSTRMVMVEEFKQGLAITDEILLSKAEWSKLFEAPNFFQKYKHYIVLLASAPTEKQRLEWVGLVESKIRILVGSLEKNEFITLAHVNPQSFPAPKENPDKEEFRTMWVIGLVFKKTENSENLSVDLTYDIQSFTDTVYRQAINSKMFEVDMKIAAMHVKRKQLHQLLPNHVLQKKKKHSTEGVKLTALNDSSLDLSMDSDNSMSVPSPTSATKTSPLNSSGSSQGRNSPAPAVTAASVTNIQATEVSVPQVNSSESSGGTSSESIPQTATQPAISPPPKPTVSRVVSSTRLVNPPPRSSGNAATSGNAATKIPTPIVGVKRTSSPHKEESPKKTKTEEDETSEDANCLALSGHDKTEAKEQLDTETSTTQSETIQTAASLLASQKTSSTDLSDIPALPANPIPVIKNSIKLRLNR
UniProt P49591: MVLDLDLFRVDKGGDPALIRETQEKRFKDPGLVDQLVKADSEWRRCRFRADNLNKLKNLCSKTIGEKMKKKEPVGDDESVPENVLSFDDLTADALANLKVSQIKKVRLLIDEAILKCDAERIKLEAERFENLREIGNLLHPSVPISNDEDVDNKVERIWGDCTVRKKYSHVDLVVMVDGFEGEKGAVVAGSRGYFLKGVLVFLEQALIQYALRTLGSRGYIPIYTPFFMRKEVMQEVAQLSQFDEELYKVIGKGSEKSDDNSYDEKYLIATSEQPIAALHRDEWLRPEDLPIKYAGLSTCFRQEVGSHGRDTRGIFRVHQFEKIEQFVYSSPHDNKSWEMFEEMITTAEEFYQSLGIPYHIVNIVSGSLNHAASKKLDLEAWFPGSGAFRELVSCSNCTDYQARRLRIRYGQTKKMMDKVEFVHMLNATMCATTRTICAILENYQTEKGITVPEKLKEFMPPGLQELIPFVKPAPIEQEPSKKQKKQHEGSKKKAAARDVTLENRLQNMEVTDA

Compound: COC(=O)/C=C/c1ccccc1 [methyl cinnamate]
Test: log2 ratio of iodoacetamide-alkyne labeling of the cysteine site, DMSO over compound (competition); higher = stronger covalent engagement of the cysteine by the compound, active = 1 or more
Details: 500 µM; treatment time 1 h; system: HEK293T cell lysate
Summary of the method: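 HEK293T lysate (2 mg/mL) was incubated with electrophile (500 µM) or vehicle for 1 h at ambient temperature and then with iodoacetamide alkyne for 1 h. Labelled proteins were clicked to sCIP-TMT reagents, pooled, digested, enriched on streptavidin and measured by Orbitrap Eclipse LC-MS/MS with FAIMS, with FragPipe quantification. The per-cysteine log2 competition ratio is mean control-channel reporter intensity over mean compound-channel reporter intensity. Across three replicates with duplicate channels, cysteines quantified in only one replicate were excluded.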

log2 ratio of iodoacetamide-alkyne labeling, inactive:
RANBP1 C99 (UniProt P43487) 0.108, ST13 C209 (UniProt P50502) 0.153, FASN C1992 (UniProt P49327) 0.124, MKI67 C2206 (UniProt P46013) 0.27, PEX5 C11 (UniProt P50542) 0.0294, MSH2 C873 (UniProt P43246) 0.468, PAPOLA C293 (UniProt P51003) 0.156, CCT8 C430 (UniProt P50990) 0.425, RANBP2 C1196 (UniProt P49792) 0.248, IDH3A C331 (UniProt P50213) 0.184, METAP2 C121 (UniProt P50579) 0.373, UniProt P49591_C438 0.128, RPS5 C66 (UniProt P46782) 0.211, FNTB C11 (UniProt P49356) 0.0539, RANBP2 C2791 (UniProt P49792) 0.221
